# According to PMC5314169, “Structure of the Branched-chain Amino Acid and GTP-sensing Global Regulator, CodY, from Bacillus subtilis*” (The Journal of Biological Chemistry, 2016):
# Numbering of substitutions follows the chain as printed. Construct, isoform or probe ends are uncertain for at least one entry. A weaker result is weaker than the reference pair of the same experiment. Tags and fusion partners may be left off the protein sequences shown.
# What was measured:
# [1] = target: T1, CodY (wild type, C-terminal His5) (Bacillus subtilis) (UniProt P39779); assay: EMSA; details: no ILV, EMSA: 20 mM Tris-Cl pH 8.0, 50 mM KCl, 2 mM MgCl2, 5% glycerol, 0.5 mM EDTA, 1 mM DTT, 0.05% Nonidet P, salmon sperm DNA (printed 40-25 ug/ml), room temperature 16 min, recombinant protein, residues 2-259, protein details: C-terminal His5
# T1 sequence (looked up): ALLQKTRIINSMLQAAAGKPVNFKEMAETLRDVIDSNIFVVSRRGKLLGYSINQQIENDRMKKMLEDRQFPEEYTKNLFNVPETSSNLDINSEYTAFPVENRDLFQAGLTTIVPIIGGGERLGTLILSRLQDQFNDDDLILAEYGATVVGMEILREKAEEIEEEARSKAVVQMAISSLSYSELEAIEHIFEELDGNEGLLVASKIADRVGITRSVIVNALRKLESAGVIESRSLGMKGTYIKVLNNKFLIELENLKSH
# [2] = target: T2, CodY(L3S)-His5 (Bacillus subtilis) (UniProt P39779); assay: EMSA; details: 10 mM Ile/Leu/Val, EMSA: 20 mM Tris-Cl pH 8.0, 50 mM KCl, 2 mM MgCl2, 5% glycerol, 0.5 mM EDTA, 1 mM DTT, 0.05% Nonidet P, salmon sperm DNA (printed 40-25 ug/ml), room temperature 16 min, recombinant protein, protein details: C-terminal His5
# T2 sequence (looked up, limits assumed): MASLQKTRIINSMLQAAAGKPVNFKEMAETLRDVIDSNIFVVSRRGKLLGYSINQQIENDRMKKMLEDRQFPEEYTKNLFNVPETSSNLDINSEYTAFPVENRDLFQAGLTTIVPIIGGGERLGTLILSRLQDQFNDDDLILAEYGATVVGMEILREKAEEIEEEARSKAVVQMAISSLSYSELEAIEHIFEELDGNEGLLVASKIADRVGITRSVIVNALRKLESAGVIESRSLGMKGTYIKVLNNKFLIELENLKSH
# [3] = target: T3, CodY (wild type, SEC-MALLS sample) (Bacillus subtilis) (UniProt P39779); assay: SEC-MALLS; details: recombinant protein
# T3 sequence (looked up, limits assumed): T2 sequence (looked up, limits assumed) with S3L
sequence,measurement,setting,value
CGAATTTTCTGAAAATTTT (double strand) [BcaPp8(19)],binding result,"[1]; very dramatic loss of affinity, label: 32P 5' on one strand",binds more weakly
same,binding result,"[2]; very weak, label: 32P 5' on one strand",binds more weakly
CAAAATAAAAAATTTGTCGAATTTTCTGAAAATTTT (double strand) [BcaPp8(36)],binding result,"[1]; no C1 complex, label: 32P 5' on one strand in EMSA",binds more weakly
same,binding result,"[2]; less efficient than wild type, C2 only, label: 32P 5' on one strand in EMSA",binds more weakly
CAAAATAAAAAATTTGTCGAATTTTCTGAAAATTTT (double strand) [BcaPp8(36) unlabeled (BcaP36)],binding result,"[3]; 10 mM isoleucine, ~130 kDa, four CodY per duplex",binds
same,binding result,"[3]; no isoleucine, ~70 kDa, dissociating complex",binds more weakly
TAAAAAATTTGTCGAATTTTCTGAAAATTTT (double strand) [BcaPp8(31)],binding result,"[1]; no C1 complex, label: 32P 5' on one strand",binds more weakly
